The source of these data is patent US20230287060, “PROTEINS AND THEIR USE FOR NUCLEOTIDE BINDING” (The University of Western Australia, published 2023).

Protein sequences can lack the tags named with them.

In series [1] the test system is T1, cPPR-Telo2 (synthetic construct).
T1 sequence: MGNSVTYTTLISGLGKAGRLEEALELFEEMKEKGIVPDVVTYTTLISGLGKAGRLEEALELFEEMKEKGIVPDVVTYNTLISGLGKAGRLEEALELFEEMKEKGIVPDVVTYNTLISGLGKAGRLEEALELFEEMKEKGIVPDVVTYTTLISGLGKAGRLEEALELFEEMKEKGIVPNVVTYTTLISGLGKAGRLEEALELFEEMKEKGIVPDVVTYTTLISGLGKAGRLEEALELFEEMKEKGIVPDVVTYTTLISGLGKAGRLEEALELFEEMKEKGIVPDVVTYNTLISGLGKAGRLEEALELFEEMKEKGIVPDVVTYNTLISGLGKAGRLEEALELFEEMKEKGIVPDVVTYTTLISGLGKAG
In words: inhibition of the protein. As to conditions: 5'-biotin, purified recombinant protein, protein details: GST and His tags (pETM30, E. coli), single-stranded DNA.

The subject of series [2] is T2, cPPR-Telo1 (synthetic construct).
T2 sequence: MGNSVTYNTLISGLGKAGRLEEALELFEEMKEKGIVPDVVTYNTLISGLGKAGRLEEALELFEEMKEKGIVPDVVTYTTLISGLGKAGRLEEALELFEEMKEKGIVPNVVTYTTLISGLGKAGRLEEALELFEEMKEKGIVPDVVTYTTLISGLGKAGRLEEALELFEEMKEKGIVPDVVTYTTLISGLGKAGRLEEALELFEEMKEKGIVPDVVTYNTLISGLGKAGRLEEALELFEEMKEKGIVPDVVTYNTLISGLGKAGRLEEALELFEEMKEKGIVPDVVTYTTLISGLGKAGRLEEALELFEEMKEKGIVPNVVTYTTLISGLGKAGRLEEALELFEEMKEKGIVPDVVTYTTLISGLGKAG
In words: inhibition of the protein. As to conditions: 5'-biotin; blocks telomerase extension dose-dependently, 50-300 nM protein; maintained with excess competitor ssDNA; purified recombinant protein; protein details: GST and His tags (pETM30, E. coli); single-stranded DNA.

Setting [3] is: blocks telomerase extension, 200-300 nM protein.

“CTAGACCTGTCATCATTAGGGTTAGGGTT [Telo 14 primer]”: the “activity on this sequence” value in series [1] (setting [3]) was “active”.

Take “CTAGACCTGTCATCATTAGGGTTAGGGTTAG [Telo 16 primer]”: the “activity on this sequence” value in series [1] (setting [3]) is listed as “active”.

In the case of “CTAGACCTGTCATCATTAGGGTTAGGGTTAGGG [Telo 18 primer]”, the “activity on this sequence” value is on record as “active” in series [2] and “active” in series [1] (blocks telomerase extension dose-dependently, 50-300 nM protein).

For “CTAGACCTGTCATCATTAGGGTTAGGGTTAGGGTT [Telo 20 primer]”, the “activity on this sequence” value in series [1] (setting [3]) was “active”.
